# Reference: PMC11589570, “Critical assessment of LC3/GABARAP ligands used for degrader development and ligandability of LC3/GABARAP binding pockets” (Nature Communications, 2024)
# Values joined by “and” are separate entries in the source; they are usually repeats but may differ in a detail not shown here. Equal values may be shown once. The source gives many values for each of these; only a part stands here.
# Test system: U2OS cells
# Test: Cell growth assay (IncuCyte confluence over 72 h)
# Format: cell-based
# Parameters: key: % of well area covered by cells (confluence)
# Description: Cell growth assay: Cell confluence (phase) from RPE1 (hTERT RPE-1, ATCC CLR_4000) or U2OS (ATCC, HTB-96) cell lines were monitored over time with the IncuCyte S3 (Sartiorius, Germany) in 384-well plates in 50 ul DMEM media, supplemented with 10% Fetal Bovine Serum (FBS) 1% penicillin/Streptomycin and incubated 24 h before treatment. Experiment was performed as described in Cano-Franco et al.. […] Cell confluence is represented as % of area covered by cells. Each data point represents the average ratio or confluence obtained from three individual wells of the plate.
smiles,measurement,setting,value
O=C1CC(c2ccc(Cl)c(Cl)c2)CC(=O)C1=CNCCN1CCNCC1 (centres unmarked) [Cov-3],U2OS cell growth,"100 nM, time 12 h",34.424 and 37.4092 and 25.6598
same,U2OS cell growth,"100 nM, time 14 h",39.7254 and 48.0548 and 30.7648
same,U2OS cell growth,"100 nM, time 16 h",27.4065 and 36.5227 and 21.1678
same,U2OS cell growth,"100 nM, time 18 h",46.5662 and 48.3463 and 36.8879
same,U2OS cell growth,"100 nM, time 20 h",38.2061 and 54.6173 and 27.8021
same,U2OS cell growth,"100 nM, time 22 h",36.2137 and 40.2671 and 28.9743
same,U2OS cell growth,"100 nM, time 24 h",60.5849 and 66.4174 and 51.6124
same,U2OS cell growth,"100 nM, time 26 h",53.1389 and 64.6167 and 38.0637
same,U2OS cell growth,"100 nM, time 28 h",56.5303 and 56.4263 and 47.0077
same,U2OS cell growth,"100 nM, time 34 h",55.867 and 74.0965 and 56.0187
same,U2OS cell growth,"100 nM, time 36 h",49.8922 and 53.7039 and 29.886
same,U2OS cell growth,"100 nM, time 38 h",46.1984 and 66.635 and 38.3091
same,U2OS cell growth,"100 nM, time 40 h",79.3947 and 69.1001 and 57.2821
same,U2OS cell growth,"100 nM, time 42 h",69.8263 and 71.4482 and 59.5838
same,U2OS cell growth,"100 nM, time 44 h",66.2351 and 65.7841 and 44.3898
same,U2OS cell growth,"100 nM, time 46 h",60.403 and 66.8668 and 47.0506
same,U2OS cell growth,"100 nM, time 48 h",57.8751 and 59.0533 and 41.8282
same,U2OS cell growth,"100 nM, time 50 h",70.6825 and 84.7812 and 69.0292
same,U2OS cell growth,"100 nM, time 52 h",80.0495 and 64.0231 and 65.9363
same,U2OS cell growth,"100 nM, time 54 h",92.4508 and 93.0284 and 87.8023
same,U2OS cell growth,"100 nM, time 56 h",81.5207 and 86.4012 and 74.4337
same,U2OS cell growth,"100 nM, time 60 h",96.6365 and 93.7914 and 91.565
same,U2OS cell growth,"100 nM, time 62 h",87.7923 and 95.364 and 78.9864
same,U2OS cell growth,"100 nM, time 64 h",96.8152 and 92.9439 and 95.1795
same,U2OS cell growth,"100 nM, time 66 h",93.4316 and 93.3969 and 90.7727
same,U2OS cell growth,"100 nM, time 68 h",94.8482 and 94.8901 and 91.6376
same,U2OS cell growth,"100 nM, time 70 h",97.6777 and 93.8456 and 96.2142
same,U2OS cell growth,"100 nM, time 72 h",93.1118 and 90.7932 and 83.3745
same,U2OS cell growth,"500 nM, time 10 h",30.7488 and 26.7288 and 32.9809
same,U2OS cell growth,"500 nM, time 12 h",27.1987 and 25.3543 and 36.9137
same,U2OS cell growth,"500 nM, time 14 h",29.7432 and 23.6222 and 43.5814
same,U2OS cell growth,"500 nM, time 16 h",33.8319 and 26.4619 and 43.3524
same,U2OS cell growth,"500 nM, time 18 h",33.2237 and 30.9975 and 37.0252
same,U2OS cell growth,"500 nM, time 20 h",43.6279 and 27.7465 and 47.6343
same,U2OS cell growth,"500 nM, time 22 h",31.2979 and 25.5071 and 36.6812
same,U2OS cell growth,"500 nM, time 24 h",49.5858 and 41.3421 and 62.8344
same,U2OS cell growth,"500 nM, time 26 h",38.555 and 37.7949 and 52.3935
same,U2OS cell growth,"500 nM, time 28 h",36.6992 and 31.5583 and 59.1197
same,U2OS cell growth,"500 nM, time 30 h",44.2578 and 42.7079 and 56.1773
same,U2OS cell growth,"500 nM, time 32 h",58.7176 and 33.4329 and 60.191
same,U2OS cell growth,"500 nM, time 34 h",44.0154 and 40.4776 and 76.2023
same,U2OS cell growth,"500 nM, time 36 h",38.8402 and 45.1554 and 48.1058
same,U2OS cell growth,"500 nM, time 38 h",50.843 and 44.4932 and 68.1828
same,U2OS cell growth,"500 nM, time 40 h",41.6587 and 38.6094 and 73.0109
same,U2OS cell growth,"500 nM, time 42 h",59.8084 and 50.8314 and 73.0945
same,U2OS cell growth,"500 nM, time 44 h",53.3097 and 49.8387 and 66.8176
same,U2OS cell growth,"500 nM, time 46 h",60.6524 and 59.007 and 78.0819
same,U2OS cell growth,"500 nM, time 48 h",66.2399 and 45.3206 and 65.7511
same,U2OS cell growth,"500 nM, time 50 h",70.3843 and 58.9939 and 75.8705
same,U2OS cell growth,"500 nM, time 52 h",68.9429 and 80.966 and 82.0533
same,U2OS cell growth,"500 nM, time 54 h",84.6961 and 79.5127 and 93.2111
same,U2OS cell growth,"500 nM, time 56 h",77.5325 and 73.483 and 88.3047
same,U2OS cell growth,"500 nM, time 58 h",78.3028 and 76.3386 and 90.1819
same,U2OS cell growth,"500 nM, time 60 h",79.2505 and 69.7603 and 86.8917
same,U2OS cell growth,"500 nM, time 62 h",91.0789 and 81.3931 and 89.7806
same,U2OS cell growth,"500 nM, time 64 h",85.8262 and 88.6536 and 92.2168
same,U2OS cell growth,"500 nM, time 66 h",88.4152 and 76.5234 and 94.5393
same,U2OS cell growth,"500 nM, time 68 h",84.8472 and 75.1894 and 95.1836
same,U2OS cell growth,"500 nM, time 70 h",85.5972 and 86.9023 and 90.3612
same,U2OS cell growth,"500 nM, time 72 h",74.2556 and 89.7048 and 79.959
same,U2OS cell growth,"1 uM, time 10 h",39.1596 and 43.7988
same,U2OS cell growth,"1 uM, time 12 h",24.6816 and 36.4773 and 38.8614
same,U2OS cell growth,"1 uM, time 14 h",25.3949 and 38.1109 and 32.4977
same,U2OS cell growth,"1 uM, time 16 h",25.9805 and 38.8453 and 47.3734
same,U2OS cell growth,"1 uM, time 18 h",26.9731 and 48.1799 and 49.078
same,U2OS cell growth,"1 uM, time 20 h",26.1426 and 44.3671 and 44.5709
same,U2OS cell growth,"1 uM, time 22 h",31.4336 and 39.0696 and 38.1423
same,U2OS cell growth,"1 uM, time 24 h",41.8181 and 69.4259 and 63.8587
same,U2OS cell growth,"1 uM, time 26 h",41.9862 and 50.7595 and 47.8111
same,U2OS cell growth,"1 uM, time 28 h",34.3638 and 49.9695 and 46.2544
same,U2OS cell growth,"1 uM, time 30 h",34.2697 and 54.7126 and 62.3183
same,U2OS cell growth,"1 uM, time 32 h",39.6923 and 59.7417 and 52.8725
same,U2OS cell growth,"1 uM, time 34 h",41.509 and 56.6283 and 54.8741
same,U2OS cell growth,"1 uM, time 36 h",40.9164 and 47.567 and 48.2567
same,U2OS cell growth,"1 uM, time 38 h",55.0369 and 82.8139 and 77.0405
same,U2OS cell growth,"1 uM, time 40 h",43.1598 and 60.6915 and 58.0138
same,U2OS cell growth,"1 uM, time 42 h",50.9671 and 68.599 and 66.5795
same,U2OS cell growth,"1 uM, time 44 h",54.1845 and 75.4274 and 80.9038
same,U2OS cell growth,"1 uM, time 46 h",60.0255 and 73.3491 and 68.7558
same,U2OS cell growth,"1 uM, time 48 h",48.054 and 78.272 and 74.3277
same,U2OS cell growth,"1 uM, time 50 h",63.2703 and 77.8356 and 81.954
same,U2OS cell growth,"1 uM, time 52 h",72.6909 and 87.6865 and 81.0244
same,U2OS cell growth,"1 uM, time 54 h",76.3148 and 91.161 and 90.022
same,U2OS cell growth,"1 uM, time 56 h",72.735 and 86.0153 and 85.6529
same,U2OS cell growth,"1 uM, time 58 h",79.5683 and 93.4176 and 94.2571
same,U2OS cell growth,"1 uM, time 60 h",75.1278 and 88.9941 and 86.7455
same,U2OS cell growth,"1 uM, time 62 h",79.1998 and 91.8091 and 89.3326
same,U2OS cell growth,"1 uM, time 64 h",86.2139 and 94.6409 and 96.522
same,U2OS cell growth,"1 uM, time 66 h",87.4215 and 98.7146 and 91.0504
same,U2OS cell growth,"1 uM, time 68 h",86.1718 and 95.424 and 91.171
same,U2OS cell growth,"1 uM, time 70 h",75.2965 and 94.4259 and 94.0036
same,U2OS cell growth,"1 uM, time 72 h",88.7393 and 99.2054 and 98.6383
